Some of the results follow. Further columns of the screen follow, without active or inactive calls. Most of these compounds were active or inconclusive in the main read-out, so they are no random draw. The note in brackets gives the kind of curve behind each potency; many fits are weak.
Assay: qHTS Assay for Lipid Storage Modulators in Drosophila S3 Cells;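 as to cell number change: cells counted by Cell Tracker Red CMTPX staining in the red channel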
Conditions: BODIPY lipid droplet fluorescence, 18-24 h; for cell number change: measured here: cell count max response, cells fed with added oleic acid
Method in brief: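 Drosophila S3 cells loaded with oleic acid (400 uM, as added) and compounds at several concentrations; lipid droplets imaged by 488-nm laser-scanning cytometry, 500–530 nm intensity and object ratio to cell channel. Percent activity normalized to 20 uM Triacsin C.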

[1] = measured here: cell number channel AC50, cells fed with added oleic acid
[2] = measured here: lipid fluorescence (Fed channel) AC50, cells fed with added oleic acid

Row | Structure (SMILES) | cell number change [%] | AC50 [1] | AC50 [2]
1 | CCN(CC)c1ccc(/C=N/N2CCOCC2)cc1 | -54.8 | 0.731 µM [falling, full curve, poor fit] | 8.2 µM [falling, partial curve, poor fit]
2 | CCN(CC)S(=O)(=O)c1ccc(NC(=O)CSc2ncnc3ccccc23)cc1 | 7.12 | 0.651 µM [falling, partial curve, poor fit] | 1.03 µM [rising, full curve]
3 | CC1CN(S(=O)(=O)c2ccc(C(=O)Nc3ccc(S(=O)(=O)N4CCOCC4)cc3)cc2)CC(C)O1 (stereo not given) | 33.5 | 23.1 µM [rising, partial curve, poor fit] | 
4 | COc1ccccc1CNC(=O)COC(=O)c1ncc(Cl)c(Cl)c1Cl | 8.86 |  | 0.651 µM [falling, partial curve, poor fit]
5 | COc1ccc(C2C(C#N)=C(C)NC3=C2C(=O)CC(C)(C)C3)cc1 (stereo not given) | 80.3 | 9.2 µM [rising, partial curve] | 11.6 µM [rising, partial curve]
6 | Cc1ccccc1N1CC(C(=O)Nc2nnc(SCC(=O)Nc3nccs3)s2)CC1=O (stereo not given) | 62 | 20.6 µM [rising, single point] | 
7 | COc1ccc(C(=O)N(C)C2(C)CCS(=O)(=O)C2)cc1OC (stereo not given) | -25.7 | 1.3 µM [falling, full curve, poor fit] | 5.17 µM [falling, full curve]
8 | CC(=O)C1=C(O)C(=O)N(c2nnn(C)n2)C1c1cccs1 (stereo not given) |  |  | 18.4 µM [rising, single point]
9 | O=C(OCc1cccc2ccccc12)c1ccc2c(=O)[nH]c(CN3CCOCC3)nc2c1 | 16.6 |  | 0.731 µM [rising, full curve, poor fit]
10 | COc1ccc(-c2oc3c(OC)c(OC)c(OC)c(O)c3c(=O)c2OC)cc1OC | -53.4 | 20.6 µM [falling, partial curve, poor fit] | 14.6 µM [falling, partial curve]
11 | Cc1cccc(C)c1NC(=O)Cn1cc(C=O)c2ccccc21 | -19 |  | 4.61 µM [falling, full curve, poor fit]
12 | CC(=O)Nc1ccc(NC(=O)c2ccc(NS(=O)(=O)c3cc(C(C)(C)C)cc(C)c3C)cc2)cc1 | -33.5 | 29.1 µM [falling, single point] | 0.82 µM [falling, single point]
13 | Cc1ccc2nc(-c3ccc(O)cc3)oc2c1 | 27.5 |  | 
14 | O=C(CSC1=NS(=O)(=O)c2ccccc2N1)NCCc1ccccc1 |  |  | 0.731 µM [falling, full curve, poor fit]
15 | COc1cccc(-c2nnc(SCC(=O)NC3CCS(=O)(=O)C3)n2C)c1 (stereo not given) | 23.4 |  | 0.13 µM [rising, full curve, poor fit]
16 | Cc1ccc(S(=O)(=O)N(C)C)cc1NC(=O)COC(=O)c1sc2cc(Cl)ccc2c1Cl |  |  | 1.3 µM [falling, partial curve]
17 | COc1ccc(N(CC(=O)NCCSCc2ccco2)S(=O)(=O)c2ccccc2)cc1OC | 16.2 |  | 
18 | N#Cc1nc(-c2cccs2)oc1NCCc1ccccc1 | 5.21 | 0.103 µM [rising, full curve, poor fit] | 4.61 µM [rising, full curve, poor fit]
19 | CC(=O)c1cc2c(cc1NC(=O)Cn1cnc3ccccc3c1=O)OCO2 | -8.95 |  | 29.1 µM [rising, single point]
20 | O=c1c(-c2ccccc2)c(O)nc2ccccn12 | -12 |  | 29.1 µM [rising, single point]

Row | Structure (SMILES) | cell number change [%] | AC50 [1] | AC50 [2]
21 | CCOc1ccc(-n2c(C)c(C(C)=O)c3cc(OC(C)=O)ccc32)cc1 | -19.9 |  | 
22 | CCN(CC)CCNc1nc(-c2ccccc2)c2c(c1C#N)CC(C)(C)OC2 | 11.8 |  | 0.00461 µM [rising, full curve, poor fit]
23 | COCCCNC(=O)c1ccc(Cn2c(=O)c3ccccc3n(CC(=O)NCc3ccco3)c2=O)cc1 | 1.17 |  | 5.17 µM [rising, single point]
24 | COc1ccc(C2CC3(CC(C)(C)NC(=S)N3)Oc3cc(O)cc(C)c32)cc1OC (stereo not given) | 0.774 |  | 6.51 µM [falling, single point]
25 | Nc1c(NCc2ccccc2F)c(=O)[nH]c(=O)n1Cc1ccccc1 | -10.2 |  | 11.6 µM [rising, single point]
26 | Cn1c(-c2ccccc2)nc2cnccc21 | 6.32 |  | 
27 | COc1cc(OC)cc(C(=O)OCc2cc3ccccc3[nH]c2=O)c1 | -5.68 | 0.291 µM [rising, partial curve, poor fit] | 
28 | CCOC(=O)C1(Cc2ccc(Cl)cc2)CCN(C2CCC2)CC1 | 14.9 |  | 29.1 µM [rising, single point]
29 | CCC(c1nnnn1Cc1ccccc1)N1CCN(C(=O)c2ccco2)CC1 (stereo not given) | -0.814 |  | 
30 | O=C(Cn1cncn1)NCCC(c1ccccc1)c1ccccc1 | -10.2 |  | 0.00461 µM [falling, full curve]
31 | Cn1c(SCc2ccccc2)nnc1-c1ccco1 | -21.4 | 0.164 µM [falling, full curve, poor fit] | 0.116 µM [falling, full curve, poor fit]
32 | O=C(Cn1cc([N+](=O)[O-])ccc1=O)NCC1COc2ccccc2O1 (stereo not given) | 12.6 |  | 6.51 µM [falling, single point]
33 | O=C(c1c(F)cccc1F)N(Cc1ccccn1)C1CC1 |  |  | 29.1 µM [falling, single point]
34 | O=C(CSc1nc2[nH]ncc2c(=O)[nH]1)NCc1ccc(F)cc1 | 13.1 |  | 
35 | CCOC(=O)C1CCN(Cc2ccc(O)c(OC)c2)CC1 | 2.41 |  | 
36 | COc1ccc(OC)c(/C=N/N(CCC#N)C2=NS(=O)(=O)c3ccccc32)c1 | 19 |  | 29.1 µM [rising, single point]
37 | N#Cc1ccc(-c2cccnc2)nc1SCc1ccc(Cl)cc1Cl | -37.7 | 29.1 µM [falling, single point] | 
38 | CC1=NN(C(=O)c2cc(C)nn2C)C(O)(C(F)(F)F)C1 (stereo not given) | 0.804 |  | 6.51 µM [falling, single point]
39 | Cc1ccc(S(=O)(=O)N[C@@H](CC(C)C)C(=O)N2CCC(C(=O)N[C@@H](Cc3ccccc3)C(=O)O)CC2)cc1 | -21.7 |  | 8.2 µM [falling, partial curve]
40 | CCCCN(C)CCNS(=O)(=O)c1ccc2c(c1)n(C)c(=O)c(=O)n2C | 20.5 |  | 0.231 µM [falling, full curve]

Gathered by group: the compounds so far containing a thiophene ring, fused or not
Row | Structure (SMILES) | cell number change [%] | AC50 [1] | AC50 [2]
8 | CC(=O)C1=C(O)C(=O)N(c2nnn(C)n2)C1c1cccs1 (stereo not given) |  |  | 18.4 µM [rising, single point]
16 | Cc1ccc(S(=O)(=O)N(C)C)cc1NC(=O)COC(=O)c1sc2cc(Cl)ccc2c1Cl |  |  | 1.3 µM [falling, partial curve]
18 | N#Cc1nc(-c2cccs2)oc1NCCc1ccccc1 | 5.21 | 0.103 µM [rising, full curve, poor fit] | 4.61 µM [rising, full curve, poor fit]

Further results follow:

Row | Structure (SMILES) | cell number change [%] | AC50 [1] | AC50 [2]
41 | COC(=O)N/N=C/c1sc(N2CCCCC2)nc1-c1cccs1 | -39.3 | 25.9 µM [falling, single point] | 
42 | O=C(O)COc1ccc(S(=O)(=O)c2ccc(OCC(=O)O)cc2)cc1 | -8.71 |  | 
43 | CC(=O)c1cc(C#N)c(NCCCN(C)C)nc1C | -6.67 |  | 0.164 µM [falling, full curve, poor fit]
44 | CC(C)(C)N=C1C([N+](=O)[O-])=CC=C2C1=NC1(CCCCC1)N2O | -46.7 | 11.6 µM [falling, partial curve] | 6.51 µM [falling, full curve]
45 | Cc1cccc(NC(=O)C2C3CCC4C(CCC32)C4(Cl)Cl)c1 (stereo not given) | 20 |  | 29.1 µM [falling, single point]
46 | O=C(CCCCCn1c(=S)[nH]c2ccc(Br)cc2c1=O)NCC1CCCO1 (stereo not given) | -32.4 | 29.1 µM [falling, single point] | 11.6 µM [rising, partial curve, poor fit]
47 | CN1CCN(C2=Cc3ccccc3Sc3cc(F)ccc32)CC1 | -36.1 | 23.1 µM [falling, single point] | 23.1 µM [falling, single point]
48 | O=C(Nc1ccc2nc[nH]c2c1)c1ccco1 | -8.28 |  | 14.6 µM [rising, partial curve]
49 | COc1ccc(CC(NC(C)=O)C(=O)NC2CCN(C(=O)C3CCCCC3)CC2)cc1OC (stereo not given) | 8.97 |  | 
50 | CCn1c(/C=C/c2ccc(F)cc2)nc2ccccc2c1=O | 6.57 |  | 
51 | O=C1c2ccncc2C(=O)N1C1CCCCC1 | -2.34 |  | 6.51 µM [falling, single point]
52 | Cc1ccc(CN(Cc2ccco2)C(=S)Nc2ccccc2C)cc1 |  | 0.082 µM [rising, full curve, poor fit] | 
53 | O=C(NC12CC3CC(CC(C3)C1)C2)c1ccc(-c2ccc(Br)cc2)o1 | 32.1 | 29.1 µM [rising, single point] | 
54 | S=C(Nc1cccc2ccccc12)NC1CCCCC1 | 12.6 |  | 29.1 µM [rising, single point]
55 | O=C(NC1CC1)c1cccc(Nc2ccc(-c3ccc4c(c3)OCCO4)nn2)c1 |  | 6.51 µM [rising, single point] | 6.51 µM [rising, partial curve]
56 | O=[N+]([O-])c1cc(/C=N/NC(=S)Nc2ccccc2Cl)ccc1Cl | 10.2 | 6.51 µM [rising, single point] | 
57 | O=S(=O)(c1ccc(S(=O)(=O)N2CCN3CCCC3C2)cc1)N1CCCC1 (stereo not given) | -14 | 6.51 µM [falling, single point] | 3.66 µM [falling, full curve]
58 | COc1ccc(OC)c(NS(=O)(=O)c2cc(OC)ccc2OC)c1 | 3.2 |  | 0.146 µM [rising, full curve]
59 | Cn1c(=O)[nH]c(=O)c2c1nc(SCCO)n2CCCc1ccccc1 | -4.76 |  | 3.26 µM [rising, single point]
